From publication PMC10766984, “Josephin domain containing 2 (JOSD2) promotes lung cancer by inhibiting LKB1 (Liver kinase B1) activity” (Signal Transduction and Targeted Therapy, 2024)

Target: T1, GST-JOSD2 (Homo sapiens, UniProt Q8TAC2)
T1 sequence (Q8TAC2 1-188): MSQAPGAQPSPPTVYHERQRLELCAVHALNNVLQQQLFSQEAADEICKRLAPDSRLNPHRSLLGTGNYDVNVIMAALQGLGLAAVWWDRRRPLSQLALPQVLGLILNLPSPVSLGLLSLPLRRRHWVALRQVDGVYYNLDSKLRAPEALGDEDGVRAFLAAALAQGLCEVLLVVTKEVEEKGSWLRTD
Conditions: compound concentration 2 μM; JOSD2 inhibitor screening, related to Fig. 7a

- JOSD2 Activity Inhibition (%): -24.96%
Structure (SMILES): CN(C)CCOC(c1ccccc1)c1ccccc1.Cn1c(=O)c2[nH]c(Cl)nc2n(C)c1=O [Dimenhydrinate]
